These are yes or no findings as the source states them, for the method shown. Binding seen in cells or lysates may run through a third protein. Some entries that bind do so weakly or less than the wild type. Where a sequence is shown, tags or fusion partners need not be part of it.
Assays:
GST-MOB3C (human) = biological target: T1, GST-MOB3C (human) (UniProt Q70IA8); assay: pull-down; ~120 pmol purified GST-MOB3C or GST-MOB1A mixed with cleared HeLa lysate (20 mM Tris-HCl pH 8, 100 mM NaCl, 5 mM MgCl2), 37 °C 15 min then ice 30 min, glutathione agarose 90 min at 4 °C; RNase P on the beads detected by cleavage of pre-tRNA^Arg (n-Tr21) at 15, 22 and 30 min; only the target …
T1 sequence: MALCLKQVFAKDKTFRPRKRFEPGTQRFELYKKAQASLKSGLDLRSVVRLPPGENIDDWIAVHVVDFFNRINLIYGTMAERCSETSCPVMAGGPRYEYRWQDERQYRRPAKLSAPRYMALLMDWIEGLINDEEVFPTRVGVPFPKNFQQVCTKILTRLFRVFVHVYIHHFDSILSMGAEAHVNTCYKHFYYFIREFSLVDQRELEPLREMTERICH

Sequences of proteins named here, by UniProt entry; tags and fusion partners are left off. A change or cut given only in a name is not applied to a line headed by its entry.
UniProt Q99575: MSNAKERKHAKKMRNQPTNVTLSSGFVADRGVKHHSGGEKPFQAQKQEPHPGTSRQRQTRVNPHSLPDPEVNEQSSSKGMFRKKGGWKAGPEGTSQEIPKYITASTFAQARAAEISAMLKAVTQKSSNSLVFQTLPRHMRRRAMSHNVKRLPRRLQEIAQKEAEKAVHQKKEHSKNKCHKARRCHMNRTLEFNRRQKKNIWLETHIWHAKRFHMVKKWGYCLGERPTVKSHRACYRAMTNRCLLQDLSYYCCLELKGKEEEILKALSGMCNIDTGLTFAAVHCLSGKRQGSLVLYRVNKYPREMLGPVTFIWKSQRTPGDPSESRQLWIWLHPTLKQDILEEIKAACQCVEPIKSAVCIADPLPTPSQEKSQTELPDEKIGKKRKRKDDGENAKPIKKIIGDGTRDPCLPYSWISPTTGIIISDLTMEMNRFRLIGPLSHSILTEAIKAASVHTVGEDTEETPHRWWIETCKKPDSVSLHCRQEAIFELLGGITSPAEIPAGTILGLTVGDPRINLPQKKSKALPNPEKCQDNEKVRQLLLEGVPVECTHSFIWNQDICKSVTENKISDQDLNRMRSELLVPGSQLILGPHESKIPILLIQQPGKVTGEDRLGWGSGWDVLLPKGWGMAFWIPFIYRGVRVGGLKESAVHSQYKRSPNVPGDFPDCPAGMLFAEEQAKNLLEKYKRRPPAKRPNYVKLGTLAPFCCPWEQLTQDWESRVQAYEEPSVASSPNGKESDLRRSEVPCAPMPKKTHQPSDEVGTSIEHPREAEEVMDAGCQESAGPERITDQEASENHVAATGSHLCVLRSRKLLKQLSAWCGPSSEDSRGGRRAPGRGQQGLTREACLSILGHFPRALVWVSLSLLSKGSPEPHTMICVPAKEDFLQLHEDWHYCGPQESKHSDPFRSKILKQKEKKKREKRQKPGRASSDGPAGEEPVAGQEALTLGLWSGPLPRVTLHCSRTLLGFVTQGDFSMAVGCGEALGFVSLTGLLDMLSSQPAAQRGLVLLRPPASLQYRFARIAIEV

GST-MOB1A (human) = biological target: T2, GST-MOB1A (human) (UniProt Q9H8S9); assay: as above
T2 sequence: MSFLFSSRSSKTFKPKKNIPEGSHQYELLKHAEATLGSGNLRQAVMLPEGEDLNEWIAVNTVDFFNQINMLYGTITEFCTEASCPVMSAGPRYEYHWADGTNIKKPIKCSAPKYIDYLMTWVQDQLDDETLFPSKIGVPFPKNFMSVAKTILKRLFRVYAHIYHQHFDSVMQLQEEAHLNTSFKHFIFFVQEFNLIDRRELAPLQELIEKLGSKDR

Question: Which results are given for “RNase P complex (from UniProt Q99575 1-1024; O95707 1-220; O95059 1-124; Q9BUL9 1-199; P78346 1-268; P78345 1-283; O75818 1-363; O75817 1-140; Q9H633 1-154; Q969H6 1-163)”?
Answer: binding (GST-MOB3C (human)): binds; binding (GST-MOB1A (human)): no binding (tested: ∼120 pmol GST-MOB1A)
